# Results reported in publication PMC11209375.
# Protein sequences, listed by entry. Tags and fused reporters are not part of them.
# UniProt P19474: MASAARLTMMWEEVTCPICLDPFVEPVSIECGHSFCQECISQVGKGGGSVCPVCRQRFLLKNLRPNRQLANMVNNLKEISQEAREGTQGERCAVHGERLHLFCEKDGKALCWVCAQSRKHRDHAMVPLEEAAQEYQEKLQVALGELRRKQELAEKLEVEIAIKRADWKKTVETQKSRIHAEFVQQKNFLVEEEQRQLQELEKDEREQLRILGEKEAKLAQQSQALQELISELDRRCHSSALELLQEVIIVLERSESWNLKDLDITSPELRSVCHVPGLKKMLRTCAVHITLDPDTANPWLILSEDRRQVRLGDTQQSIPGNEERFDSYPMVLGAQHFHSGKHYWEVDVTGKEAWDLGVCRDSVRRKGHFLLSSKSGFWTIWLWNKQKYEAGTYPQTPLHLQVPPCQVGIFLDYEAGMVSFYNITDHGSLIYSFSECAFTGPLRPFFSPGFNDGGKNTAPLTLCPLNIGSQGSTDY
# No constants are given. Whether binding was seen depends on the method and setting. Binding seen in cells or lysates may run through a third protein. Some binding calls cover weakened binding; strength is not graded here. Sequences can lack the tags named with a protein.
# Molecular target: T1, HA-IKKβ (UniProt O14920)
# T1 sequence: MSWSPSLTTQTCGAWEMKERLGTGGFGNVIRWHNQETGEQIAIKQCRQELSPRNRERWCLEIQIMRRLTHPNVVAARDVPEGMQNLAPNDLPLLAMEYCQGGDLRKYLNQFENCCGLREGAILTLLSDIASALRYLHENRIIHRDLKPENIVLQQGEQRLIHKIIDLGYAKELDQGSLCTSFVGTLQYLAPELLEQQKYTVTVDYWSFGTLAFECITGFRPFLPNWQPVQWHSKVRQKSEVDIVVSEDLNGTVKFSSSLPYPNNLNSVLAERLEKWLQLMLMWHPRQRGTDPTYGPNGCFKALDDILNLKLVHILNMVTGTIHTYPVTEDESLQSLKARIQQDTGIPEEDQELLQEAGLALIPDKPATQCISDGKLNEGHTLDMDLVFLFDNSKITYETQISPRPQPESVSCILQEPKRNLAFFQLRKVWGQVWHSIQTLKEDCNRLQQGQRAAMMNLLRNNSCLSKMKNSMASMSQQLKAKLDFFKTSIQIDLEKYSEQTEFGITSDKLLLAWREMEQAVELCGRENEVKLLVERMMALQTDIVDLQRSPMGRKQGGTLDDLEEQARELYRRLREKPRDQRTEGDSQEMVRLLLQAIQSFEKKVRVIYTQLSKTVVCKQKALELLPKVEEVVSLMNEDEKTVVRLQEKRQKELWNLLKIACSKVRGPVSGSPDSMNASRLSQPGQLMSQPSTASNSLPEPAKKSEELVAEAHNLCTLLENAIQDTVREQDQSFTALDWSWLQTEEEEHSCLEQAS
# Test: co-IP
substance,measurement,value
Flag-TRIM21 (E3 ubiquitin ligase TRIM21) (from UniProt P19474 1-475) (enzyme),binding,binds
